The test addresses GST-SsaE fusion protein (Salmonella enterica serovar Typhimurium). Kind of test: pull-down; GST-SsaE immobilised on glutathione-Sepharose, incubated at 4°C for 2 h with E. coli lysate containing SseB-FLAG; washed five times with TBS pH 7.6; immunoblot with anti-GST and anti-FLAG; only the target purified. Background: A western blot detects proteins with antibodies after separation by electrophoresis.

The record followed here is PMC3983159.

These are yes or no findings as the source states them, for the method shown. In cells and extracts the contact can be indirect. Binding can be weak; no strength is given. Tags and fused reporters may be left off the sequences shown.

B1: SseB-FLAG fusion protein (protein, UniProt Q7BVH7 1-196)
chain: MSSGNILWGSQNPIVFKNSFGVSNADTGSQDDLSQQNPFAEGYGVLLILLMVIQAIANNKFIEVQKNAERARNTQEKSNEMDEVIAKAAKGDAKTKEEVPEDVIKYMRDNGILIDGMTIDDYMAKYGDHGKLDKGGLQAIKAALDNDANRNTDLMSQGQITIQKMSQELNAVLTQLTGLISKWGEISSMIAQKTYS
On to B1, for which the binding result is reported as “binds”.
